Data as given in PubChem BioAssay AID1224830 (NIAID, 2016).

Purpose: 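Genes whose knock-down alters the TNF-alpha reporter response to LPS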 (primary screen)
System: human THP-1 monocytic leukaemia cells, TNF dual-luciferase reporter clone, PMA-differentiated to macrophage-like cells
Knock-down reagent: siRNA pool against human genes, 50 nM
Time to read-out: LPS for 4 h, given about 3 days after siRNA transfection
Treatment: bacterial LPS (TLR4 ligand), 10 ng/ml
Read-out: 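Ratio of firefly to renilla light, scaled to the plate median and expressed as a robust z-score per replicate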
Direction: TNF reporter robust z-score: higher = stronger TNF reporter response to LPS
Hit rule: 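a well is active when its z-score exceeds 2.8 or falls below -1.5; control wells carry no call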
In all, the deposit lists about 18,000 reagents; shown is an unselected part. Of all reagents, about 2,900 (16%) are marked active. 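Calls are made per well; low scores hint the gene aids the LPS response, high scores that it dampens it.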 Repeated entries: four replicate wells of each siRNA pool.

DQX1 (DEAQ-box RNA dependent ATPase 1) scored TNF reporter robust z-score 0.73; inactive. After knock-down of DQX1 (DEAQ-box RNA dependent ATPase 1) the results were TNF reporter robust z-score 1.73; inactive. DQX1 (DEAQ-box RNA dependent ATPase 1) showed TNF reporter robust z-score 0.42; inactive. For DQX1 (DEAQ-box RNA dependent ATPase 1), the values are TNF reporter robust z-score 0.39; inactive. For ASCC2 (activating signal cointegrator 1 complex subunit 2), the entry reads TNF reporter robust z-score 1.48; inactive. Against ASCC2 (activating signal cointegrator 1 complex subunit 2), the values are TNF reporter robust z-score 1.92; inactive.

ASCC2 (activating signal cointegrator 1 complex subunit 2) gave TNF reporter robust z-score 2.53; inactive. ASCC2 (activating signal cointegrator 1 complex subunit 2) scored TNF reporter robust z-score 1.17; inactive. ILDR2 (immunoglobulin like domain containing receptor 2) gave TNF reporter robust z-score 0.58; inactive. Silencing of ILDR2 (immunoglobulin like domain containing receptor 2) gave: TNF reporter robust z-score 1.29; inactive. ILDR2 (immunoglobulin like domain containing receptor 2) gave TNF reporter robust z-score 0.29; inactive. For ILDR2 (immunoglobulin like domain containing receptor 2), the entry reads TNF reporter robust z-score -0.22; inactive.

For SLC39A4, the values are TNF reporter robust z-score 1.07; inactive. Against SLC39A4, the entry reads TNF reporter robust z-score 1.09; inactive. Against SLC39A4, the values are TNF reporter robust z-score 0.26; inactive. Against SLC39A4, the entry reads TNF reporter robust z-score 0.61; inactive. ARPC1B (actin related protein 2/3 complex subunit 1B) gave TNF reporter robust z-score -1.05; inactive. ARPC1B (actin related protein 2/3 complex subunit 1B) gave TNF reporter robust z-score -1.1; inactive.

After knock-down of ARPC1B (actin related protein 2/3 complex subunit 1B) the results were TNF reporter robust z-score -1.59; active. Knock-down of ARPC1B (actin related protein 2/3 complex subunit 1B) resulted in: TNF reporter robust z-score -0.9; inactive. NID1 (nidogen 1) showed TNF reporter robust z-score 1.19; inactive. After knock-down of NID1 (nidogen 1), the record shows TNF reporter robust z-score 0.13; inactive. NID1 (nidogen 1) scored TNF reporter robust z-score 0.67; inactive. With knock-down of NID1 (nidogen 1), the screen gave TNF reporter robust z-score -0.76; inactive.

Knock-down of C8orf82 (chromosome 8 open reading frame 82) resulted in: TNF reporter robust z-score 0.96; inactive. With knock-down of C8orf82 (chromosome 8 open reading frame 82), the record shows TNF reporter robust z-score 1.37; inactive. For C8orf82 (chromosome 8 open reading frame 82) the deposit lists TNF reporter robust z-score 1.28; inactive. For C8orf82 (chromosome 8 open reading frame 82) the deposit lists TNF reporter robust z-score 0.89; inactive. For DPH2 (diphthamide biosynthesis 2) the deposit lists TNF reporter robust z-score 1.16; inactive. Against DPH2 (diphthamide biosynthesis 2) the deposit lists TNF reporter robust z-score 1.49; inactive.

Against DPH2 (diphthamide biosynthesis 2) the deposit lists TNF reporter robust z-score 0.5; inactive. Depletion of DPH2 (diphthamide biosynthesis 2) gave: TNF reporter robust z-score 0.96; inactive. Silencing of FAM216B (family with sequence similarity 216 member B) came out at: TNF reporter robust z-score 0.26; inactive. FAM216B (family with sequence similarity 216 member B) showed TNF reporter robust z-score 0.86; inactive. FAM216B (family with sequence similarity 216 member B) showed TNF reporter robust z-score 1.41; inactive. For FAM216B (family with sequence similarity 216 member B), the values are TNF reporter robust z-score 1.54; inactive.

After knock-down of RALGAPA2 (Ral GTPase activating protein catalytic subunit alpha 2) the results were TNF reporter robust z-score -0.85; inactive. Silencing of RALGAPA2 (Ral GTPase activating protein catalytic subunit alpha 2) gave: TNF reporter robust z-score -0.74; inactive. With knock-down of RALGAPA2 (Ral GTPase activating protein catalytic subunit alpha 2), the screen gave TNF reporter robust z-score 0.24; inactive. After knock-down of RALGAPA2 (Ral GTPase activating protein catalytic subunit alpha 2) the results were TNF reporter robust z-score -0.81; inactive. Depletion of RPS15A (ribosomal protein S15a) came out at: TNF reporter robust z-score -0.01; inactive. Silencing of RPS15A (ribosomal protein S15a) gave: TNF reporter robust z-score 0.08; inactive.

For RPS15A (ribosomal protein S15a), the entry reads TNF reporter robust z-score 1.77; inactive. Against RPS15A (ribosomal protein S15a), the entry reads TNF reporter robust z-score 2.67; inactive. CSMD1 (CUB and Sushi multiple domains 1) showed TNF reporter robust z-score 0.17; inactive. Against CSMD1 (CUB and Sushi multiple domains 1) the deposit lists TNF reporter robust z-score 2.36; inactive. Against CSMD1 (CUB and Sushi multiple domains 1), the values are TNF reporter robust z-score 2.29; inactive. Knock-down of CSMD1 (CUB and Sushi multiple domains 1) resulted in: TNF reporter robust z-score 2.48; inactive.

Records listed so far marked active, once more:
ARPC1B (actin related protein 2/3 complex subunit 1B): TNF reporter robust z-score = -1.59; Outcome = active
